Source: publication PMC11649789
Results are given in words; binding and its absence hold for the method and conditions named. Binding seen in cells or lysates may run through a third protein. Some binding calls cover weakened binding; strength is not graded here.

Chains of the proteins cited; added tags and fusions are not shown.
UniProt P17931: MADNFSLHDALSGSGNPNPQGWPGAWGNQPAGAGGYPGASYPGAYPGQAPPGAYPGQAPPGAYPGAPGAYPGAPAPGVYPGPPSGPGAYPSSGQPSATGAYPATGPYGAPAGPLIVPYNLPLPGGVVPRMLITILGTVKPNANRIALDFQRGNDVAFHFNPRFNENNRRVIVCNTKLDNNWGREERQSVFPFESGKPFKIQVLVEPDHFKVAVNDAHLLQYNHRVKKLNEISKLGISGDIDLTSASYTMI
UniProt P05198: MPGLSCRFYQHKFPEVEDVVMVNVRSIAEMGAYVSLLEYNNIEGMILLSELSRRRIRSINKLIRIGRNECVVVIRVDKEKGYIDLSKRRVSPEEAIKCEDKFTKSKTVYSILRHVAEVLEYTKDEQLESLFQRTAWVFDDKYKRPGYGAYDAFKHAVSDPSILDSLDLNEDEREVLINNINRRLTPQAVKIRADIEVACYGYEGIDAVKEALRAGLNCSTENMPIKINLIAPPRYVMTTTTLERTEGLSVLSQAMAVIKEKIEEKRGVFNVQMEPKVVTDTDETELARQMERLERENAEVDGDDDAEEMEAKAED

Assays:
[1] = target: FLAG-Gal3 (UniProt P17931); assay: co-IP; HEK293T expressing FLAG-Gal3; untreated or 1 mM LLOMe 30 min; NP-40 lysate, anti-FLAG antibody, Dynabeads; immunoblot (Fig. 6C)
[2] = target: FLAG-eIF2α (UniProt P05198); assay: co-IP; HEK293T expressing FLAG or FLAG-eIF2α, untreated or 1 mM LLOMe 30 min; NP-40 lysate, anti-FLAG antibody, Dynabeads; immunoblot (Fig. 3D)

- binding [1]: binds
- binding [2]: binds
B1: PACT, protein activator of PKR, endogenous (protein, UniProt O75569 1-313)
chain: MSQSRHRAEAPPLEREDSGTFSLGKMITAKPGKTPIQVLHEYGMKTKNIPVYECERSDVQIHVPTFTFRVTVGDITCTGEGTSKKLAKHRAAEAAINILKANASICFAVPDPLMPDPSKQPKNQLNPIGSLQELAIHHGWRLPEYTLSQEGGPAHKREYTTICRLESFMETGKGASKKQAKRNAAEKFLAKFSNISPENHISLTNVVGHSLGCTWHSLRNSPGEKINLLKRSLLSIPNTDYIQLLSEIAKEQGFNITYLDIDELSANGQYQCLAELSTSPITVCHGSGISCGNAQSDAAHNALQYLKIIAERK
